From PubChem BioAssay AID1332 (Southern Research Institute, 2008)
Converted amounts (≈) assume the structure as drawn. The list shows a part of the results. Shown are side measurements of this screen, not its main read-out; they come without a call.

Experiment: Confirmatory growth inhibition assay, mycobacterium tuberculosis h37rv, with cytotoxicity (AID 1332);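 as to CC50: Vero cells exposed to compounds for 72 hours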;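 as to IC50: bacteria incubated 7 days before adding Alamar blue readout reagent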
Settings: M. tuberculosis H37Rv growth inhibition; CC50: measured here: Vero cell cytotoxicity; IC50: measured here: IC50 H37Rv replicates

SMILES | IC50 | CC50
CCN(CC)CCc1nc(-c2ccccc2)no1 | > 20 µg/mL | 
Cc1nccc2c1[nH]c1ccccc12 | > 20 µg/mL | 
CN1CCN(CCCN2c3ccccc3Sc3ccc(Cl)cc32)CC1 | 5.26 µg/mL (≈ 14.1 µM) | > 6 µg/mL
O=c1oc2ccccc2c(O)c1Cc1c(O)c2ccccc2oc1=O | > 20 µg/mL | 
COc1c2occc2c(OC)c2c(=O)cc(C)oc12 | > 20 µg/mL | 
c1cncc(C2=NCCC2)c1 | > 20 µg/mL | 
Nc1cc(C(Cl)=C(Cl)Cl)c(S(N)(=O)=O)cc1S(N)(=O)=O | > 20 µg/mL | 
C[N+]1(C)CCC(OC(=O)C(O)(c2ccccc2)C2CCCC2)C1 (centres undefined) | > 20 µg/mL | 
Clc1ccc(CCC(Cn2ccnc2)Sc2c(Cl)cccc2Cl)cc1 (centres undefined) | 1.14 µg/mL (≈ 2.76 µM) | > 6 µg/mL
N#Cc1ccc(C(c2ccc(C#N)cc2)n2cncn2)cc1 | > 20 µg/mL | 
COc1c2occc2cc2ccc(=O)oc12 | > 20 µg/mL | 
CN1CCN(C2=Nc3ccccc3Oc3ccc(Cl)cc32)CC1 | > 20 µg/mL | 
Cc1c2ccncc2c(C)c2c1[nH]c1ccccc12 | 0.119 µg/mL (≈ 0.483 µM) | 0.169 µg/mL (≈ 0.686 µM)
CC(=O)OCC(=O)[C@H]1CC[C@H]2[C@@H]3CC[C@H]4C[C@H](O)CC[C@]4(C)[C@H]3C(=O)C[C@]12C | > 20 µg/mL | 
C[C@@H]1C[C@H]2[C@@H]3C[C@H](F)C4=CC(=O)C=C[C@]4(C)[C@@]3(F)[C@@H](O)C[C@]2(C)[C@@]1(O)C(=O)CO | > 20 µg/mL | 
O=C(O)Cc1ccc(-c2ccccc2)cc1 | > 20 µg/mL | 
Oc1cc(O)c2c(c1)O[C@H](c1ccc(O)c(O)c1)[C@@H](O)C2 | > 20 µg/mL | 
CCN(CC)CCOC(=O)C1(C2CCCCC2)CCCCC1 | > 20 µg/mL | 
Cc1ccc(C(=O)c2ccc(CC(=O)O)n2C)cc1 | > 20 µg/mL | 
CC[N+](C)(CC)CCOC(=O)C1c2ccccc2Oc2ccccc21 | > 20 µg/mL | 
NS(=O)(=O)c1cc(C2(O)NC(=O)c3ccccc32)ccc1Cl (centres undefined) | > 20 µg/mL | 

SMILES | IC50 | CC50
C=CC(N)CCC(=O)O (centres undefined) | > 20 µg/mL | 
Cc1ncc(C[n+]2csc(CCO)c2C)c(N)n1 | > 20 µg/mL | 
CCN[C@H]1CN(CCCOC)S(=O)(=O)c2sc(S(N)(=O)=O)cc21 | > 20 µg/mL | 
CC[N+](C)(C)c1cccc(O)c1 | > 20 µg/mL | 
OCCN1CCN(CC/C=C2/c3ccccc3Sc3ccc(C(F)(F)F)cc32)CC1 | 4.36 µg/mL (≈ 10 µM) | > 6 µg/mL
CCC(C)N1CCC2(CC1)N=c1c(c3c4c5c(C)c(O)c3c(O)c1=NC(=O)/C(C)=C/C=C/[C@H](C)[C@H](O)[C@@H](C)[C@@H](O)[C@@H](C)[C@H](OC(C)=O)[C@H](C)[C@@H](OC)/C=C/O[C@@](C)(O5)C4=O)N2 (some centres undefined) | < 0.04 µg/mL | 
NC(=O)CN1CCCC1=O | > 20 µg/mL | 
COc1cc2c(cc1OC)C(C)NCC2 (centres undefined) | > 20 µg/mL | 
O=P1(NCCCl)OCCCN1CCCl (centres undefined) | > 20 µg/mL | 
OC(CCN1CCCCC1)(c1ccccc1)C1C[C@@H]2C=C[C@H]1C2 (some centres undefined) | > 20 µg/mL | 
CC(=O)S[C@@H]1CC2=CC(=O)CC[C@]2(C)[C@H]2CC[C@@]3(C)[C@@H](CC[C@@]34CCC(=O)O4)[C@H]12 | > 20 µg/mL | > 6 µg/mL
CC(Cc1cccc(C(F)(F)F)c1)NCCOC(=O)c1ccccc1 (centres undefined) | > 20 µg/mL | 
COc1ccc(-c2ccc(N)[n+](CCCC(=O)O)n2)cc1 | > 20 µg/mL | 
NNCCc1ccccc1 | > 20 µg/mL | 
CC(C)c1c(CN(C)C(C)Cc2ccccc2)n(C)n(-c2ccccc2)c1=O (centres undefined) | > 20 µg/mL | 
C=C(C)[C@@H]1CC[C@]2(C(=O)O)CC[C@]3(C)[C@H](CC[C@@H]4[C@@]5(C)CC[C@H](O)C(C)(C)[C@@H]5CC[C@]43C)[C@@H]12 | > 20 µg/mL | > 6 µg/mL
O=C1NCCN1c1ncc([N+](=O)[O-])s1 | > 20 µg/mL | 
Cc1cccc(C)c1NC1=NCCCS1 | > 20 µg/mL | 
CNc1ncnc2c1ncn2[C@@H]1O[C@H](CO)[C@@H](O)[C@H]1O | 0.36 µg/mL (≈ 1.28 µM) | 
c1ccc2c(c1)CCCC2C1=NCCN1 (centres undefined) | > 20 µg/mL | 
CCN(CC)CCCC(C)Nc1ccnc2cc(Cl)ccc12 (centres undefined) | > 20 µg/mL | 
CS(=O)(=O)c1ccc([C@@H](O)[C@@H](CF)NC(=O)C(Cl)Cl)cc1 | 1.18 µg/mL (≈ 3.3 µM) | > 6 µg/mL

Shown tab-delimited: part of the list above
SMILES	IC50	CC50
Clc1ccc(CCC(Cn2ccnc2)Sc2c(Cl)cccc2Cl)cc1 (centres undefined)	1.14 µg/mL (≈ 2.76 µM)	> 6 µg/mL
N#Cc1ccc(C(c2ccc(C#N)cc2)n2cncn2)cc1	> 20 µg/mL	

Remaining list, next part:

SMILES | IC50 | CC50
Nc1c(O)cccc1C(=O)CC(N)C(=O)O (centres undefined) | > 20 µg/mL | 
C=C(CC)C(=O)c1ccc(OCC(=O)O)c(Cl)c1Cl | > 20 µg/mL | 
CC(C(=O)O)c1cccc(Oc2ccccc2)c1 (centres undefined) | > 20 µg/mL | 
CCn1cc(C(=O)O)c(=O)c2cc(F)c(N3CCNCC3)nc21 | 2.78 µg/mL (≈ 8.67 µM) | 
CC(C)(Oc1ccc(CCNC(=O)c2ccc(Cl)cc2)cc1)C(=O)O | > 20 µg/mL | 
OCCN1CCN(CCCN2c3ccccc3Sc3ccc(C(F)(F)F)cc32)CC1 | 4.2 µg/mL (≈ 9.6 µM) | > 6 µg/mL
c1ccc(CC2=NCCN2)cc1 | > 20 µg/mL | 
COc1cc2c(c(OC)c1OC)-c1ccc(O)c(=O)cc1[C@@H](N)CC2 | > 20 µg/mL | 5.18 µg/mL (≈ 15.1 µM)
CN(C)c1ccc(O)c2c1CC1CC3[C@@H](N(C)C)C(=O)C(C(N)=O)=C(O)[C@]3(O)C(=O)C1=C2O (some centres undefined) | 0.524 µg/mL (≈ 1.15 µM) | > 6 µg/mL
O=C1c2ccccc2C(=O)C1c1ccccc1 | > 20 µg/mL | 
Clc1ccc2c(c1)C(N1CCNCC1)=Nc1ccccc1O2 | > 20 µg/mL | > 6 µg/mL
CC(C)N=C(N)/N=C(\N)Nc1ccc(Cl)cc1 | > 20 µg/mL | > 6 µg/mL
O=C(O)CCc1nc(-c2ccccc2)c(-c2ccccc2)o1 | > 20 µg/mL | 
CC[C@H]1OC(=O)[C@H](C)[C@@H](OC2C[C@@](C)(OC)[C@@H](O)[C@H](C)O2)[C@H](C)[C@@H](O[C@@H]2O[C@H](C)C[C@H](N(C)C)[C@H]2O)[C@](C)(O)C[C@@H](C)/C(=N\OCOCCOC)[C@H](C)[C@@H](O)[C@]1(C)O (some centres undefined) | 0.551 µg/mL (≈ 0.659 µM) | 
c1cncc([C@H]2CCCCN2)c1 | > 20 µg/mL | 
Cc1ccc(N(CC2=NCCN2)c2cccc(O)c2)cc1 | > 20 µg/mL | 
Cc1c(Cl)cccc1Nc1ccccc1C(=O)O | > 20 µg/mL | 
CO[C@H]1/C=C/O[C@@]2(C)Oc3c(C)c(O)c4c(O)c(c(/C=N/N5CCN(C)CC5)c(O)c4c3C2=O)NC(=O)/C(C)=C\C=C\[C@H](C)[C@H](O)[C@@H](C)[C@@H](O)[C@@H](C)[C@H](OC(C)=O)[C@@H]1C | < 0.04 µg/mL | 
C[C@]12CCC(=O)C=C1CC[C@@H]1[C@@H]2C(=O)C[C@@]2(C)[C@H]1CC[C@]2(O)C(=O)CO | > 20 µg/mL | 
COCCCC/C(=N\OCCN)c1ccc(C(F)(F)F)cc1 | > 20 µg/mL | 
C[C@]12CC[C@H](O)C[C@H]1CC[C@@H]1[C@@H]2C[C@@H](O)[C@]2(C)[C@@H](C3=CC(=O)OC3)CC[C@]12O | > 20 µg/mL | 0.968 µg/mL (≈ 2.48 µM)

14 entries from above in a different format.
SMILES	IC50	CC50
Clc1ccc(CCC(Cn2ccnc2)Sc2c(Cl)cccc2Cl)cc1 (centres undefined)	1.14 µg/mL (≈ 2.76 µM)	> 6 µg/mL
N#Cc1ccc(C(c2ccc(C#N)cc2)n2cncn2)cc1	> 20 µg/mL	
COc1c2occc2cc2ccc(=O)oc12	> 20 µg/mL	
CN1CCN(C2=Nc3ccccc3Oc3ccc(Cl)cc32)CC1	> 20 µg/mL	
Cc1c2ccncc2c(C)c2c1[nH]c1ccccc12	0.119 µg/mL (≈ 0.483 µM)	0.169 µg/mL (≈ 0.686 µM)
CC(=O)OCC(=O)[C@H]1CC[C@H]2[C@@H]3CC[C@H]4C[C@H](O)CC[C@]4(C)[C@H]3C(=O)C[C@]12C	> 20 µg/mL	
C[C@@H]1C[C@H]2[C@@H]3C[C@H](F)C4=CC(=O)C=C[C@]4(C)[C@@]3(F)[C@@H](O)C[C@]2(C)[C@@]1(O)C(=O)CO	> 20 µg/mL	
O=C(O)Cc1ccc(-c2ccccc2)cc1	> 20 µg/mL	
Oc1cc(O)c2c(c1)O[C@H](c1ccc(O)c(O)c1)[C@@H](O)C2	> 20 µg/mL	
CCN(CC)CCOC(=O)C1(C2CCCCC2)CCCCC1	> 20 µg/mL	
Cc1ccc(C(=O)c2ccc(CC(=O)O)n2C)cc1	> 20 µg/mL	
CC[N+](C)(CC)CCOC(=O)C1c2ccccc2Oc2ccccc21	> 20 µg/mL	
NS(=O)(=O)c1cc(C2(O)NC(=O)c3ccccc32)ccc1Cl (centres undefined)	> 20 µg/mL	
C=CC(N)CCC(=O)O (centres undefined)	> 20 µg/mL	
